# In PubChem BioAssay AID1347076 (National Center for Advancing Translational Sciences (NCATS), 2019):
# Hit rate of the full screen: of about 400,000 compounds, about 13,000 (3.2%) were called active. Inconclusive results, whose numbers are uncertain, are shown with a selection of clear calls. Calls follow the shape of the dose curve; as a rule, active = well fitted cell-killing curve with a large enough effect; inconclusive = small, poorly fitted or top-dose-only effect, or effect the other way; inactive = flat fitted curve, though single readings scatter. Potencies of inconclusive entries are doubtful fits and often do not repeat.
# Test: qHTS assay for MDR1-selective chemotherapeutics: Primary screen using the drug-selected MDR subline cells KB-V1; also: nearly all actives have a fitted effect of over 60% in size
# Details: KB-V1 MDR cells viability, CellTiter-Glo, 72 h; activity change, negative = cytotoxicity: at 46.1 µM (top of the series)
# Method in brief: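 Cytotoxicity toward P-gp-expressing KB-V1 cells was determined as loss of CellTiter-Glo luminescence after 72 h at 37 degrees C. Compounds were tested in quantitative HTS format across a concentration range, with curves fitted to normalized data.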
# % is scaled to controls: 0 for no effect and ±100 for the full control effect; potency is read from the fitted curve at half-maximal effect.
SMILES,"activity change, negative = cytotoxicity",Potency
O=C(NC1CCCCC1)c1c[nH]c2ccc(S(=O)(=O)Nc3ccccc3F)cc2c1=O,inactive: 22.5%,–
Cc1ccc(NS(=O)(=O)c2cc([N+](=O)[O-])ccc2NNC(=S)Nc2cccc(Cl)c2)c(C)c1,–,"inconclusive: 25.9 µM [cytotoxic, partial curve, poor fit]"
CCN(CC(=O)NCc1ccc(F)cc1)C(=O)Cc1c(F)cccc1Cl,–,"inconclusive: 16.4 µM [cytotoxic, partial curve]"
CCOc1ccc(CN(C)C(C)C(=O)NCCc2ccc(F)cc2)cc1 (centres undefined),–,"inconclusive: 32.6 µM [cytotoxic, single point]"
Fc1ccc(CNc2ncnc3c2cnn3-c2ccccc2)cc1,inactive: 12.9%,–
CC(C)c1ccc(-n2nc3ccc(N)cc3n2)cc1,inactive: -23%,–
Cc1n[nH]c(C)c1Cc1c(F)cccc1Cl,inactive: 0.796%,–
CCN(C(=O)CCCCC(=O)N(CC)c1ccccc1)c1ccccc1,–,"inconclusive: 29.1 µM [cytotoxic, single point]"
Cc1ccc2cccc(NC(=O)C(F)(F)F)c2n1,–,"inconclusive: 4.61 µM [rising, partial curve, poor fit]"
CN(C)S(=O)(=O)c1cccc(-c2nnc(-c3ccccc3)o2)c1,–,active: 23.1 µM
COc1ccc(Cn2nnnc2C(C(C)C)N(Cc2ccco2)Cc2cccs2)cc1 (centres undefined),–,"inconclusive: 20.6 µM [cytotoxic, single point]"
COC(=O)[C@@]12C[C@@H](CC(=O)N3CCN(C(=O)c4ccco4)CC3)C(=O)N(Cc3ccc4c(c3)OCO4)C1=CCC(C)(C)C2,inactive: -19%,–
COc1ccc([C@H]2CC(=O)C=C(c3ccc(CNC(=O)OC(C)(C)C)cc3)C2)cc1,–,"inconclusive: 18.4 µM [cytotoxic, single point]"
CCOC(=O)N1CCC(NC(=O)CS(=O)Cc2nc(-c3ccccc3C)oc2C)CC1 (centres undefined),–,"inconclusive: 29.1 µM [cytotoxic, single point]"
CSCCC(NC(=O)c1ccccc1)C(=O)N/N=C(\C)c1ccccc1 (centres undefined),–,"inconclusive: 23.1 µM [cytotoxic, partial curve, poor fit]"
CN(c1ccccc1)S(=O)(=O)c1ccc(C(=O)OCC(=O)NCc2cccs2)cc1,–,"inconclusive: 16.4 µM [cytotoxic, single point]"
O=C(NS(=O)(=O)c1ccc2ccc(S(=O)(=O)NCCSc3ccccc3)cc2c1)c1cccc2ccccc12,inactive: 0%,–
CCCn1c(SCC(=O)NCCc2ccccc2)nnc1-c1ccccn1,–,"inconclusive: 6.51 µM [cytotoxic, partial curve]"
Cc1ccc2nc3c(c(Nc4ccc5c(c4)OCCO5)c2c1)CCC3,–,"inconclusive: 29.1 µM [cytotoxic, single point]"
CCCCCCC(C)n1[nH]c(=O)c2c(C)cc(=O)[nH]c21 (centres undefined),–,"inconclusive: 1.64 µM [cytotoxic, partial curve, poor fit]"
COc1ccc(Nc2cc(C)nc3ncnn23)c(OC)c1,inactive: 15.8%,–
C(=N\c1nccs1)/c1cccnc1,–,"inconclusive: 23.1 µM [rising, single point]"

SMILES,"activity change, negative = cytotoxicity",Potency
CC(=O)c1sc(NC(=O)c2ccc3c(c2)OCO3)nc1C,inactive: 4.35%,–
CCOc1cccc2sc(=NC(=O)c3ccco3)n(CC(=O)OC)c12,–,"inconclusive: 32.6 µM [cytotoxic, partial curve, poor fit]"
COc1cccc(CNC(=O)C2(C)CCCN2C(=O)C(C)C)c1 (centres undefined),–,"inconclusive: 18.4 µM [cytotoxic, partial curve]"
CCOC(=O)C1(Cc2cccc(OC)c2)CCCN(Cc2cc(C(C)C)n[nH]2)C1 (centres undefined),–,"inconclusive: 11.6 µM [cytotoxic, partial curve]"
CC(N=C1NS(=O)(=O)c2ccccc21)C(=O)NCc1ccncc1 (centres undefined),–,"inconclusive: 29.1 µM [rising, single point]"
CCCCC(=NCCc1c(C)[nH]c2ccc(OC)cc12)C1=C(O)CC(c2ccccc2)CC1=O (centres undefined),–,active: 5.8 µM
Cn1c(=O)c2[nH]c(C(O)c3ccc(Cl)cc3)nc2n(C)c1=O (centres undefined),–,"inconclusive: 18.4 µM [cytotoxic, single point]"
O=C(NCc1ccc(F)cc1)c1cc2ccccn2n1,–,"inconclusive: 2.59 µM [rising, full curve]"
O=C(OCC(=O)N1CCN(C(=O)c2ccco2)CC1)c1ccccc1,–,"inconclusive: 2.91 µM [cytotoxic, partial curve, poor fit]"
COc1ccc(-c2ccnc3nc(N4CCN(c5ccccc5)CC4)nn23)cc1,–,active: 20.6 µM
COc1ccc(/C=N/Nc2nc3ccccc3c(=O)n2-c2ccccc2)cc1OC,–,"inconclusive: 10.3 µM [cytotoxic, partial curve, poor fit]"
O=C(CN1C(=O)C2CCCCC2C1=O)Nc1nc(-c2ccccn2)cs1 (centres undefined),–,"inconclusive: 14.6 µM [cytotoxic, partial curve, poor fit]"
O=C(NC(=S)Nc1nc2c(s1)CCCC2)c1ccccc1,–,"inconclusive: 6.51 µM [cytotoxic, partial curve]"
O=S(=O)(Nc1cccc(-n2cnnn2)c1)c1cc(Br)ccc1Br,–,active: 5.8 µM
Cc1csc(-c2nc3ccccc3n2C(C)c2nc3ccccc3[nH]2)c1 (centres undefined),inactive: -14.4%,–
COc1ccc(C)cc1NC(=O)C1CC(=O)N(CCc2ccccc2)C1 (centres undefined),–,"inconclusive: 0.259 µM [cytotoxic, full curve]"
Cn1ncc2cc3c(Nc4ccc(Cl)cc4)cccc3nc21,inactive: -3.94%,–
O=C(Nc1nc2c(F)cc(F)cc2s1)c1ccco1,inactive: -1.15%,–
COC(=O)NCC(c1ccc2c(c1)OCO2)N1CCN(c2ccccc2)CC1 (centres undefined),inactive: 13.5%,–
O=C(Nc1ccc2nc(C3CC3)n(Cc3ccc(F)cc3)c(=O)c2c1)c1ccco1,–,"inconclusive: 11.2 µM [cytotoxic, partial curve, poor fit]"
COc1cc2c(cc1OC)CN(C(=O)CCC(=O)c1ccc(F)cc1)CC2,–,"inconclusive: 23.1 µM [cytotoxic, partial curve, poor fit]"
O=C1C=C(Nc2cccnc2)c2ccccc2C1=O,–,"inconclusive: 5.8 µM [cytotoxic, partial curve, poor fit]"

# Copied from the entries so far for reference:
SMILES,"activity change, negative = cytotoxicity",Potency
COc1cc2c(cc1OC)CN(C(=O)CCC(=O)c1ccc(F)cc1)CC2,–,"inconclusive: 23.1 µM [cytotoxic, partial curve, poor fit]"
O=C1C=C(Nc2cccnc2)c2ccccc2C1=O,–,"inconclusive: 5.8 µM [cytotoxic, partial curve, poor fit]"
